Source: PMC10472876
No constants are given. Whether binding was seen depends on the method and setting. In cells and extracts the contact can be indirect. These calls come from enrichment with a bait or labelling near it, and not all partners need be listed.

The chains behind the UniProt entries cited, without tags or fusion partners. Residues count along the entry.
UniProt Q14790: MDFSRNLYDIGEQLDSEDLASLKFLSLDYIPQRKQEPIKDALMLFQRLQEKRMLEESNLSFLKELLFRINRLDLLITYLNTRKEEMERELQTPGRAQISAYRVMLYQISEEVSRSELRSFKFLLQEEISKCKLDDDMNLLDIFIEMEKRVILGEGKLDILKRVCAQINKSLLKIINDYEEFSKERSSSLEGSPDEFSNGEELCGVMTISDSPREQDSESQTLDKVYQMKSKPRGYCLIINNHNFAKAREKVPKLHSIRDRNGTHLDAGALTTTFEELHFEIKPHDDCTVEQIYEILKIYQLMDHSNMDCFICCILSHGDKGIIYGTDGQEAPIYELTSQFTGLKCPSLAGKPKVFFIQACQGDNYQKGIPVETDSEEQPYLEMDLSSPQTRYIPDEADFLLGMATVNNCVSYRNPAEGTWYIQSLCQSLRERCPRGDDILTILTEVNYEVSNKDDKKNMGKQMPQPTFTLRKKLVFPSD
UniProt P50591, residues 95-281: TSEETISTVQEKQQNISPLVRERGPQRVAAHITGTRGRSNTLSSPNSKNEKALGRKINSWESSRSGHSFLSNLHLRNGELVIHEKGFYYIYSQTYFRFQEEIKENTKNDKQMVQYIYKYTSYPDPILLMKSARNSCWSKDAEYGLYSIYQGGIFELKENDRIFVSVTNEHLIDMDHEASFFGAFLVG

Biological target: CASP8 (caspase 8), endogenous (human (endogenous in HeLa)) (UniProt Q14790)
Assay: affinity purification with mass spectrometry; as a1; the recombinant purified HF-TNFSF10/TRAIL added to living HeLa cells (1 µg/ml, 3 h) is found in the anti-CASP8 bTIP; only the binder purified

With “HF-TNFSF10/TRAIL (FLAG- and 6×His-tagged extracellular portion of human TNFSF10/TRAIL, AA95–281) (from UniProt P50591 95-281) (ligand)” the binding was “binds”.
